# No constants are given. Whether binding was seen depends on the method and setting. In cells and extracts the contact can be indirect. A yes stands for co-enrichment or nearness to the bait. Other partners may have been found. No binding means not detected with the bait. Where a sequence is shown, tags or fusion partners need not be part of it.
# B1: E. histolytica patatin family phospholipase A (enzyme, UniProt C4M3X9 1-625)
# chain: MNINQQQDLFALLINKYINTEMNTKTAIKSLDDLRQFPIQTSPQFIRIIQEACKQGNFEVLQYFCEKFPSFIDQPNVQGETPLFIATAYNKLEIAEYLIKHGASTNHLLPTGDSYLHWIAASPPSSLKNSIINGVIAKYPEIVKTNNIIQETPMHIAALAGDIDVVNKLIECGGQPTDKTIRCIDVYGYAQASGNKELMDLLKPLCKKDQIIQEQKLMGIAGYAISRPDSSSLPSSNSNSSTNDTISDNEDTFNIECIELDPNEDTTVEGLYKKYQTYNLPKQSKLKKFMNKIVKYPSINQFKRETMVLIKEAFLSRRMMEQPNKYGKGKKYRIISLDGGGIKVLMEVILLQRLSAEFPDMFVNCNLFCGCSASSVVAVTLSMGYNLDGLMKLIEHVIRYSFKKDSIQSVTNSKYINDYLRAFGEVAFGNLKLHDLPRHVLIPSFLIDSGIDSETRHCKSEAFNNIIPGNDTEKVADVCLRSAAAPSYYKPYQNYVDGGIVDNVPCGVAWPYLIGAKGIGIDPKDIVCLSLSAGRPTPAHLDAQKIGNGGLVQWAPVLADLFMLARRDETVKEGKLLFGERFLRVDPILPGQILLDNVEQIEEVKRIAQSYDLEEIRKWMREYWE
# Biological target: T1, HA-tagged wild-type E. histolytica methionine aminopeptidase 2 (Entamoeba histolytica) (UniProt C4LWW4)
# T1 sequence: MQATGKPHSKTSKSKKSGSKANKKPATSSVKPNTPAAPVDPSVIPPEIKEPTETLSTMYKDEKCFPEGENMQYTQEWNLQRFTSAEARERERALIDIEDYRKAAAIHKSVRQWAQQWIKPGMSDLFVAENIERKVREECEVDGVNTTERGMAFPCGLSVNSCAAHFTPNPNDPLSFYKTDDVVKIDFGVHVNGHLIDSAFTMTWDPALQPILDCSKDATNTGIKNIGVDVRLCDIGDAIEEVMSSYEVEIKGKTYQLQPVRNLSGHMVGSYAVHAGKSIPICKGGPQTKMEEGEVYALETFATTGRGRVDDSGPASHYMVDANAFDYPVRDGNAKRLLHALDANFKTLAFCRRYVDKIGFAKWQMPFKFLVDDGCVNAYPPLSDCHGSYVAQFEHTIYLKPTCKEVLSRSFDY
# Test: affinity purification with mass spectrometry; HA-EhMetAP2 expressing amoebae treated with DSP cross-linker, lysed (50 mM Tris-HCl pH 7.5, 150 mM NaCl, 1% Triton X-100); anti-HA (clone HA-7) agarose beads, 4°C, 3.5 hours; eluate by SDS-PAGE and LC-MS/MS
binder,measurement,value
B1,binding,no binding
